Assay results as given in patent publication US20090305995A1 (Novartis AG, priority 2004, published 2009).

Assay: general procedure: solution-phase peptide synthesis; carbonyldiimidazole (for C-terminal amine building blocks)
Conditions: whole synthesis, HPLC, HR-MS, LC-MS, 1D- and 2D-NMR

| Substance | purity (crude or final not stated) [%] |
| --- | --- |
| PEPTIDE1{[HCin].[b3hPhe].[dW].[b3hLys].[HThrNH2]}$$$$V2.0 | >97 |
| PEPTIDE1{[b3hPhe].[dW].[b3hLys].[HThrNH2]}$$$$V2.0 | >99 |
| PEPTIDE1{[cHexCO].[b3hPhe].[dW].[b3hLys].[HThrNH2]}$$$$V2.0 | >89 |
| PEPTIDE1{[Bz].[b3hPhe].[dW].[b3hLys].[HThrNH2]}$$$$V2.0 | >93 |
| PEPTIDE1{[Non].[b3hPhe].[dW].[b3hLys].[HThrNH2]}$$$$V2.0 | >97 |
| PEPTIDE1{[AdaCO].[b3hPhe].[dW].[b3hLys].[HThrNH2]}$$$$V2.0 | >87 |
| PEPTIDE1{[Ac].[b3hPhe].[dW].[b3hLys].[HThrNH2]}$$$$V2.0 [2] | >94 |

Same assay, conditions: whole synthesis, HR-MS, LC-MS, 1D- and 2D-NMR

| Substance | final HPLC purity [%] |
| --- | --- |
| PEPTIDE1{[Ac].[b3hPhe].[dW].[b3hLys].[NHcPent]}$$$$V2.0 | >99 |
| PEPTIDE1{[Ac].[b3hPhe].[dW].[b3hLys].[b3Leu].[NMePhEt]}$$$$V2.0 | >99 |
| PEPTIDE1{[HCin].[b3hPhe].[dW].[b3hLys].[b3Leu].[NEt2]}$$$$V2.0 | >99 |
| PEPTIDE1{[AdaCO].[b3hPhe].[dW].[b3hLys].[HThrLac]}$$$$V2.0 | >99 |
| PEPTIDE1{[HCin].[b3hPhe].[dW].[b3hLys].[b3Leu].[NMePhEt]}$$$$V2.0 | >93 |
| PEPTIDE1{[b3hPhe].[dW].[b3hLys].[HThrLac]}$$$$V2.0 [28] | >99 |
| PEPTIDE1{[HCin].[b3hPhe].[dW].[b3hLys].[HThrLac]}$$$$V2.0 | >99 |
| Ac—(S)-β^3-HPhe-(R)-Trp-(S)-β^3-HLys-(R)-4-amino-(R)-5-methyl-dihydro-furan-2-one [7] | >99 |
| PEPTIDE1{[Bz].[b3hPhe].[dW].[b3hLys].[HThrLac]}$$$$V2.0 | >91 |
| PEPTIDE1{[AdaCO].[b3hPhe].[d1MeW].[b3hLys].[HThrLac]}$$$$V2.0 | >99 |
| PEPTIDE1{[AdaCO].[b3hPhe].[dW].[b3hLys].[b3Leu].[NMePhEt]}$$$$V2.0 | >80 |
| Cyclohexanoyl-(S)-β^3-HPhe-(R)-Trp-(S)-β^3-HLys-(R)-4-amino-(R)-5-methyl-dihydro-furan-2-one | >99 |
| PEPTIDE1{[Ac].[Meb3hPhe].[dW].[b3hLys].[HThrLac]}$$$$V2.0 | >99 |
| PEPTIDE1{[Ac].[b3hPhe].[medW].[b3hLys].[HThrLac]}$$$$V2.0 | >99 |
| Dihydrocinnemoyl-(S)-β^3-HPhe-(R)-1-Me-Trp-(S)-β^3-HLys-(R)-4-amino-(R)-5-methyl-dihydro-furan-2-one | 96 |
| PEPTIDE1{[Meb3hPhe].[dW].[b3hLys].[HThrLac]}$$$$V2.0 | >99 |
| PEPTIDE1{[Ac].[b3hPhe].[dW].[b3hLys].[b3Leu].[NEt2]}$$$$V2.0 | >94 |
| PEPTIDE1{[Ac].[b3hPhe].[med1MeW].[b3hLys].[HThrLac]}$$$$V2.0 | >99 |

Strings that start with PEPTIDE1 are HELM notation: dots part the residues, brackets hold end groups and non-standard residues.
